Inhibition zone (IZ) data for one sequence are collected here from ChEMBL document CHEMBL3751812, “Novel skeleton compound Allomyrinanoid A and two purine alkaloids from the adult of Allomyrina dichotoma L” (2016).

Assay [1] concerns Escherichia coli. As to the kind of experiment: Antibacterial activity against Escherichia coli assessed as growth inhibition at 1 mg/ml by drug sensitive assay. In kind it is functional, organism-based.
Assay [2] relates to Escherichia coli. The assay can be described thus: Antibacterial activity against Escherichia coli assessed as growth inhibition at 10 mg/ml by drug sensitive assay. It is filed as functional.
The test system of assay [3] is Pseudomonas aeruginosa. As to the kind of experiment: Antibacterial activity against Pseudomonas aeruginosa assessed as growth inhibition at 1 mg/ml by drug sensitive assay. It is filed as functional, organism-based.
Assay [4] deals with Pseudomonas aeruginosa. The assay can be described thus: Antibacterial activity against Pseudomonas aeruginosa assessed as growth inhibition at 10 mg/ml by drug sensitive assay. It is filed as functional, organism-based.

In the case of GENTAMICIN, the inhibition zone (IZ) in the assay on Escherichia coli [1] came to 9 mm; in the assay with Escherichia coli [2] it was 12 mm; with Pseudomonas aeruginosa [3] it was 8 mm; in the assay with Pseudomonas aeruginosa [4] it was 12 mm.
